Data as given in PubChem BioAssay AID1259308 (NCATS, 2017).
The deposit covers about 59,000 reagents; this is an unselected part. Over the whole deposit, about 1,510 (2.6%) are marked active. 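Calls use total luciferase alone and ignore viability, so some active siRNAs may act by altering cell number.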 Reagents against one gene are numbered here. Not all columns of the deposit are shown. No sequences are given here.

- Aim: 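Knock-downs that increase output of a recombinant reporter protein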 (primary screen)
- System: human HEK293 embryonic kidney cells stably expressing firefly luciferase (HEK-CMV-Luc2-Hygro)
- Knock-down reagent: single siRNA against human genes, 0.8 pmol siRNA per well
- Timing: 72 h
- Read-out: 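Reporter luminescence and viable-cell signal on separate replicate plates, given as percent of non-targeting control and median/MAD z-scores, plus per-cell luciferase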
- Reading the numbers: total luciferase, z-score: higher = more reporter protein produced
- Call rule: 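Active when the median/MAD z-score for overall luciferase is greater than 3; a gene was taken forward for validation with new siRNAs if at least two of its three siRNAs passed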
- Meaning of the calls: active = raised luciferase; inactive = no rise

After knock-down of SPDL1 #1 the results were total luciferase, z-score -1.59; inactive.
Against SPDL1 #2 the deposit lists total luciferase, z-score -0.616; inactive.
For SPDL1 #3 the deposit lists total luciferase, z-score -0.579; inactive.
Against HBQ1 #1 the deposit lists total luciferase, z-score 0.00691; inactive.
With knock-down of HBQ1 #2, the record shows total luciferase, z-score 0.217; inactive.
For HBQ1 #3 the deposit lists total luciferase, z-score -0.632; inactive.
Knock-down of PALLD #1 gave: total luciferase, z-score -0.547; inactive.
For PALLD #2, the entry reads total luciferase, z-score 0.503; inactive.
PALLD #3 gave total luciferase, z-score 0.325; inactive.
Depletion of TFPI2 #1 gave: total luciferase, z-score -0.764; inactive.
After knock-down of TFPI2 #2, the record shows total luciferase, z-score -0.1; inactive.
After knock-down of TFPI2 #3, the screen gave total luciferase, z-score 1.31; inactive.

A run of entries from the list above, as a working copy:
HBQ1 #3: total luciferase, z-score = -0.632; call = inactive
PALLD #1: total luciferase, z-score = -0.547; call = inactive
